Laboratory results: PubChem BioAssay AID743255 (National Center for Advancing Translational Sciences (NCATS), 2014)
About 910 (0.23%) of roughly 390,000 compounds were called active. This list was built around the results that the source calls inconclusive (neither active nor inactive); the mix of calls is not that of the screen. Calls come from the whole dose curve; as a rule, active = well fitted inhibition curve with a large enough effect; inconclusive = small, poorly fitted or top-dose-only effect; inactive = no such curve, though single readings can be large or run the other way. A potency beside an inconclusive call is a rough fit, not a confirmed value.

By UniProt entry, the sequences of proteins in these tests, tags left out. Where a name states a change or a piece, a line headed by the entry shows the natural chain unless it says otherwise.
UniProt O94782: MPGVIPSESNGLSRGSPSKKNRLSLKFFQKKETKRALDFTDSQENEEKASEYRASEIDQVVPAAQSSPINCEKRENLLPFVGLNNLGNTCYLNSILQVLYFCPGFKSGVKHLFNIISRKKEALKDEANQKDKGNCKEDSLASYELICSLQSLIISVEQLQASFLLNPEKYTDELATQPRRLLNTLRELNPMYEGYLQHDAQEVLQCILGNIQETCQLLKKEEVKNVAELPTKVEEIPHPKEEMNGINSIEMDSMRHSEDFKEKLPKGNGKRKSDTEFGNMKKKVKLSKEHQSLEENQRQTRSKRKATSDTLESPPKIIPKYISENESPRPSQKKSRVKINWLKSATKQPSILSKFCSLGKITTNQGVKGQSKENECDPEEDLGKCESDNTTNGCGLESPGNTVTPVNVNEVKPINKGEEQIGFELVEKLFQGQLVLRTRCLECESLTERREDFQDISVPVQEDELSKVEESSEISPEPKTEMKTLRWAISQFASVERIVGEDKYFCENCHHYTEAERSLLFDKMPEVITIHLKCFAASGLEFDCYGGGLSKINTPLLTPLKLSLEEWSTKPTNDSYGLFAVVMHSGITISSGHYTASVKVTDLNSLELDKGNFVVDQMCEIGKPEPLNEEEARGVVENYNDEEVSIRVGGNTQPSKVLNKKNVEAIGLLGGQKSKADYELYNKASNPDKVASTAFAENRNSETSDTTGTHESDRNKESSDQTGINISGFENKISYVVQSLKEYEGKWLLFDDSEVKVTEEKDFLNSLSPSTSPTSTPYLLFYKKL

Biological target: Ubiquitin carboxyl-terminal hydrolase 1 (Homo sapiens) (UniProt O94782)
Assay: Inhibitors of USP1/UAF1: Primary Screen; note: nearly all actives have a fitted effect of over 60% in size
Conditions: recombinant USP1/UAF1, Ub-Rhodamine cleavage fluorescence; activity change, negative = inhibition: at 57.1 µM (top of the series)
Procedure, shortened: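 Step one: compound is pinned into 1nM USP1/UAF1 in HEPES pH 7.8 buffer with TCEP. Step two: 15 min room-temperature incubation. Step three: Ub-Rho (150nM final) starts cleavage, tracked by fluorescence over six one-minute reads.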
% is set by controls: 0 for no effect and ±100 for the full control effect; potency is the fitted concentration of half-maximal effect.

Potency, inconclusive:
Cc1nn2c(C)c(C(=O)Nc3ccccc3)cnc2c1C#N 7.08 µM [inhibitor, single point]
CSc1ccc(CCNC(=O)c2cc3c(-c4ccccc4F)nn(C)c3s2)cc1 20 µM [inhibitor, partial curve, poor fit]
COc1ccc(S(=O)(=O)N2CCCC2CNC(=O)C(=O)NCc2ccco2)cc1 (stereo not given) 7.94 µM [inhibitor, full curve]
Cc1cc(=O)n2nc(N3CCC(C(=O)Nc4ccc(Br)cc4F)CC3)sc2n1 39.8 µM [inhibitor, partial curve]
O=C(c1cccc(Cl)c1)C1CCCN(C(=O)c2ccoc2)C1 (stereo not given) 5.62 µM [inhibitor, partial curve]
COc1ccc(N2CCN(c3ccc(-c4nc(-c5cccc(C)c5)no4)cc3[N+](=O)[O-])CC2)cc1 44.7 µM [inhibitor, partial curve, poor fit]
COC(=O)CNC(=O)C1Nc2ccccc2C2C=CCC12 (stereo not given) 25.1 µM [inhibitor, single point]
CCCCSCCCNC(=O)C1CCN(Cc2nc(-c3cccc(Br)c3)oc2C)CC1 39.8 µM [inhibitor, partial curve, poor fit]
O=C(NC1=C(Nc2ccc(F)cc2)C(=O)c2ccccc2C1=O)c1ccc(Cl)cc1 14.1 µM [inhibitor, partial curve]
COc1ccc(S(=O)(=O)N(CC(=O)Nc2cccc(C)c2)c2ccc(C)cc2)cc1OC 39.8 µM [inhibitor, partial curve, poor fit]
Cc1cc(C)c(NC(=O)CSc2nc(-c3ccc(F)cc3)nc3c2Cc2c(CO)cnc(C)c2O3)c(C)c1 4.47 µM [inhibitor, single point]
Cc1noc(C)c1S(=O)(=O)N(C)C[C@H]1Oc2ccc(NC(=O)Cc3ccccc3)cc2C(=O)N([C@H](C)CO)C[C@@H]1C 5.01 µM [inhibitor, partial curve]
Cc1ccc(-c2nc(S(=O)(=O)c3ccc(C)cc3)c(N3CCCCCC3)o2)cc1 44.7 µM [inhibitor, partial curve, poor fit]
COc1ccc(CNC(=O)C2CCC(CNS(=O)(=O)c3cccs3)CC2)cc1 (stereo not given) 3.16 µM [inhibitor, full curve, poor fit]
CCOC(=O)c1ccccc1NC(=O)CSc1cn(CC(=O)N2CCOCC2)c2ccccc12 7.94 µM [inhibitor, full curve, poor fit]
CC(=O)N1CCc2c(sc(NC(=O)Cc3ccccc3)c2C(N)=O)C1 17.8 µM [inhibitor, partial curve]
CCCOc1ccc2ccccc2c1/C=N/n1cnnc1 1 µM [inhibitor, partial curve]
Cc1nn(C)c(Cl)c1CN1CCC(CO)(CCOc2ccccc2)CC1 6.31 µM [inhibitor, single point]
COc1cccc([C@@H]2CC=C(C(=O)O)[C@H](c3ccc(F)cc3)N2S(=O)(=O)c2ccc(C)cc2)c1 158 µM [inhibitor, partial curve, poor fit]
Cc1ccc(C(=O)OCC(=O)c2cc(C)n(CC3CCCO3)c2C)cc1 (stereo not given) 5.01 µM [inhibitor, partial curve]
CCOc1ccc(NC(=O)Cn2c(=O)cc(C)c3c(C)nn(-c4cccc(Cl)c4C)c32)cc1 50.1 µM [inhibitor, partial curve]
COc1ccc(CCNC(=O)CSc2ccc(NC(C)=O)cc2)cc1OC 50.1 µM [inhibitor, single point]
COc1ccccc1-c1cc(NC(=O)COc2ccc(C)c(C)c2)n(-c2ccccc2)n1 35.5 µM [inhibitor, partial curve]
COC(=O)CCCC1=CC2=CC(=O)C(C)(OC(=O)c3cccs3)C(=O)C2=CN1c1cccc(C#N)c1 (stereo not given) 0.112 µM [inhibitor, full curve]
Cc1cccc(N(C)S(=O)(=O)c2c(C(=O)N3CCCCCC3)c(C)n(C)c2C)c1 10 µM [inhibitor, single point]
Cc1cccc(CC(=O)NCCc2csc(-c3ccc(C(F)(F)F)cc3)n2)c1 44.7 µM [inhibitor, partial curve, poor fit]
Cc1ccc(C)c(C(=O)COC(=O)CCCC(=O)Nc2cc(C(F)(F)F)ccc2Cl)c1 50.1 µM [inhibitor, partial curve]
O=C(CSc1nccn1Cc1ccc(Cl)cc1)NCc1ccccc1 0.891 µM [inhibitor, partial curve, poor fit]
COc1ccc(NC(=O)c2nc[nH]c2C(=O)NCC(=O)OC(C)(C)C)cc1 50.1 µM [inhibitor, partial curve, poor fit]
COc1ccc(OC)c(-c2cc(C(=O)N3CCc4ccccc4C3)no2)c1 31.6 µM [inhibitor, partial curve]
CC(C)CCNC(=O)c1ccc2c(c1)N(Cc1ccccc1F)C(=O)c1ccccc1S2=O (stereo not given) 447 µM [inhibitor, partial curve, poor fit]
CCOc1cc(CNc2ccc(O)cc2)cc(Br)c1OCc1ccccc1F 50.1 µM [inhibitor, partial curve, poor fit]
N/C(=N\OCc1ccc([N+](=O)[O-])cc1)c1ccncc1 39.8 µM [inhibitor, single point]
Cc1ccc(Cn2c(CCCNC(=O)C3CCCCC3)nc3ccccc32)cc1 1.26 µM [inhibitor, full curve]
Cc1ccc(-c2cc(C(=O)N3CCN(c4ccccc4)CC3)c3ccccc3n2)cc1C 14.1 µM [inhibitor, partial curve, poor fit]
C[C@@H]1CN([C@H](C)CO)C(=O)c2cc(C#C[C@@H](C)O)cnc2O[C@H]1CN(C)C(=O)c1ccc(F)cc1 0.251 µM [inhibitor, full curve, poor fit]
CCOc1cccc(C=Nc2cc(C)cc(C)c2O)c1O 31.6 µM [inhibitor, partial curve]
COc1ccc(Cl)cc1NC(=O)c1cc(C)nn1-c1ccccc1 39.8 µM [inhibitor, partial curve, poor fit]
COc1cc(/C=C2\SC(=S)N(Nc3ncc(C(F)(F)F)cc3Cl)C2=O)cc(OC)c1OC 35.5 µM [inhibitor, single point]
CCOc1ccc(C(=O)Nc2ccccc2OC(F)F)cc1 0.398 µM [inhibitor, partial curve, poor fit]
CSc1ccccc1NC(=O)Cn1nc([N+](=O)[O-])c(Cl)c1C 2.51 µM [inhibitor, partial curve]
Nc1nccc(/C=C/c2ccc(Cl)cc2)n1 2.82 µM [inhibitor, full curve, poor fit]
CCCCCCCCCC(=O)N/N=C/c1ccc(C)s1 31.6 µM [inhibitor, partial curve]
O=S(=O)(c1ccc(Cl)cc1)c1nnn2c1nc(N1CCCCC1)c1sccc12 126 µM [inhibitor, partial curve, poor fit]
COc1cccc(CC(=O)n2nc(N)c3cc4ccc(OC)cc4nc32)c1 39.8 µM [inhibitor, partial curve]

Three records picked at random from the list so far, as already listed:
Potency, inconclusive:
CCOc1cc(CNc2ccc(O)cc2)cc(Br)c1OCc1ccccc1F 50.1 µM [inhibitor, partial curve, poor fit]
Cc1nn2c(C)c(C(=O)Nc3ccccc3)cnc2c1C#N 7.08 µM [inhibitor, single point]
Cc1ccc(C(=O)OCC(=O)c2cc(C)n(CC3CCCO3)c2C)cc1 (stereo not given) 5.01 µM [inhibitor, partial curve]

Next part:

Potency, active:
C[C@@H]1CN([C@H](C)CO)S(=O)(=O)c2ccc(Br)cc2O[C@@H]1CN(C)Cc1ccc(-c2ccccc2)cc1 25.1 µM
Oc1ccc(NCc2ccc(OCc3ccccc3Cl)cc2)cc1 31.6 µM

Activity change, negative = inhibition, inactive:
CCN(CC)c1ccc(/C=N/NC(=O)c2ccco2)c(O)c1 -9.5%
CC1CCCC(C)N1C(=O)c1ccc2c(c1)S(=O)(=O)c1ccccc1C2=O (stereo not given) -14.3%
O=C(CCCCn1c(=S)[nH]c2ccsc2c1=O)NCc1ccc2c(c1)OCO2 -11.8%
Cc1nc(Oc2ccccc2)c2ccccc2n1 -19.3%
CC(C)(C)c1nnc(NC(=O)COc2ccc3c(c2)OCO3)s1 -7.02%
O=C(Oc1csc(=S)n1C(=O)c1ccccc1)c1ccccc1 -18.3%
Cc1ccc(NC(=S)NNC(=S)NNc2ccccc2)cc1C -25.6%
CC1=C(C(=O)Nc2ccc(F)cc2F)C2(CCCCCC2)OC1=O -31.5%
Cc1ccc(N2CC(NC(=O)C(=O)c3c[nH]c4ccccc34)CC2=O)cc1 (stereo not given) -19.5%
Cc1ccc(C2C(C#N)=C(N)Oc3c2oc(CO)cc3=O)o1 (stereo not given) -11.3%
CC1CCN(C(=O)c2ccc(S(=O)(=O)Cc3ccccc3F)c([N+](=O)[O-])c2)CC1 -18.2%
CCSc1nnc(NC(=O)C(C)C)s1 -19.7%
Cn1c(SCC(=O)Nc2ccc3nc(SCC(=O)N4CCCC4)sc3c2)nnc1-c1ccccc1 -12.2%
O=C(CSc1nc(=O)n(Cc2cccnc2)c2c1CCC2)Nc1ccc(F)cc1F -30.9%
CCN(CC)CCNCC(O)(c1ccc(Cl)cc1)c1ccc(Cl)cc1 4.55%
Cc1nnc2n(-c3ccccc3)c(=O)c3ccccc3n12 -14.7%
CC(=O)Nc1ccc(S(=O)(=O)N2CCN(C(=O)C3COc4ccccc4O3)CC2)cc1 (stereo not given) -13.9%
S=c1[nH]nc(-c2ccco2)n1/N=C/c1cccc(Cl)c1 -0.437%
